Assay results taken from PMC3215728.
These are yes or no findings as the source states them, for the method shown.

By UniProt entry, the sequences of proteins in these tests, tags left out.
UniProt O75923: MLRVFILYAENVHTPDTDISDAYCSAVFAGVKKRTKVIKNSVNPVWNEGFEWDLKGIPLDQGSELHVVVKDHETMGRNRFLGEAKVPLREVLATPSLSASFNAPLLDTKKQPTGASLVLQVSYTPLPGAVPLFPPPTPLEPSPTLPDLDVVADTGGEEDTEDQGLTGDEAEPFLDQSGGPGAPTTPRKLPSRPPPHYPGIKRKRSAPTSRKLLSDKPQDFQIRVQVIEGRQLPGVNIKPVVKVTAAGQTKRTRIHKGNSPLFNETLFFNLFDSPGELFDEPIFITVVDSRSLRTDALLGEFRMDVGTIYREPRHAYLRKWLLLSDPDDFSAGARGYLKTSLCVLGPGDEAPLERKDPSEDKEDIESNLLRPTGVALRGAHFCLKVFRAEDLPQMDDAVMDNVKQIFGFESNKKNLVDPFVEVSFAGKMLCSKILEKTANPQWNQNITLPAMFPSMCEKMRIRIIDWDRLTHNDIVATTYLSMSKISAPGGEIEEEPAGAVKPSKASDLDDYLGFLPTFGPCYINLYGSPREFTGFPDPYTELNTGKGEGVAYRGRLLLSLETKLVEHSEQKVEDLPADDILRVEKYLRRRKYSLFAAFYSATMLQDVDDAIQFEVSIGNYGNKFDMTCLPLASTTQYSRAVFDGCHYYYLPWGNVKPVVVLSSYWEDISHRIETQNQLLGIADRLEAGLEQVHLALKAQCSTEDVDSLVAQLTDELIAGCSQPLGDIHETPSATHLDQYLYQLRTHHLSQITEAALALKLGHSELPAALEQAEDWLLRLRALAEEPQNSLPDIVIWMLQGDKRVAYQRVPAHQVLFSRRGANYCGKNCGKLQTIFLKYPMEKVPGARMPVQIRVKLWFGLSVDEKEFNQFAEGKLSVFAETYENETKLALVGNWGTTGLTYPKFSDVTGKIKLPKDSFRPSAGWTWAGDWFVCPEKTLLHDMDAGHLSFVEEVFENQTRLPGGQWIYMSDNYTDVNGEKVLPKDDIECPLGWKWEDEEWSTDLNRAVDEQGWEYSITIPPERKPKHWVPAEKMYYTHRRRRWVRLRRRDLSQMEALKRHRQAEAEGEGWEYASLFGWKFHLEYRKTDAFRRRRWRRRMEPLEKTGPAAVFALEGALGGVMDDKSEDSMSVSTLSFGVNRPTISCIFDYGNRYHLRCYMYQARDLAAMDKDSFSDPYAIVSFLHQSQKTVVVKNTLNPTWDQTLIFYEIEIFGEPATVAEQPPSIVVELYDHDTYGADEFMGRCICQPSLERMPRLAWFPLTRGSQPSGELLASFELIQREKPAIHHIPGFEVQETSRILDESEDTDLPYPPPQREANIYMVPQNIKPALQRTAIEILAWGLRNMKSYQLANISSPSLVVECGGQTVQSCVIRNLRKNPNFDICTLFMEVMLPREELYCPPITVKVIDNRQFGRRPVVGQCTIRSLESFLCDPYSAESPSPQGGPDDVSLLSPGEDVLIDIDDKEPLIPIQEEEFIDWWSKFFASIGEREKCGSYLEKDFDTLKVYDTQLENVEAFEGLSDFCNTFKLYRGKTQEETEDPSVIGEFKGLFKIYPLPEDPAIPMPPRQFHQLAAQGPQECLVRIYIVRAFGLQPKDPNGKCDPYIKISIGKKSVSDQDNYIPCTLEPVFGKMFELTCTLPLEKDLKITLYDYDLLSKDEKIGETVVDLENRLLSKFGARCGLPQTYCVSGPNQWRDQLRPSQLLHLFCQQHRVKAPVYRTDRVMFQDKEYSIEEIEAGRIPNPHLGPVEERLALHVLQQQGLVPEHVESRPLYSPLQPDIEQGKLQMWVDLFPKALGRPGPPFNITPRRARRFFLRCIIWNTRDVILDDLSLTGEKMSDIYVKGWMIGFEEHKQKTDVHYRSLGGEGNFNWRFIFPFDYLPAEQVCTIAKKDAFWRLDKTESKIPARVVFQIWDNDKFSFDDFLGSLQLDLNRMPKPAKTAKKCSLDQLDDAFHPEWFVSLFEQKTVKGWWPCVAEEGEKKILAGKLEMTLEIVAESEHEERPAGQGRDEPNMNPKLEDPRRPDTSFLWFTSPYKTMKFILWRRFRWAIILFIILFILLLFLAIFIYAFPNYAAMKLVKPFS

How the values were obtained:
[1] = target: CFP-dysferlin / YFP-dysferlin (full-length human dysferlin) expressed in HEK293 cells (human) (UniProt O75923); assay: fluorescence correlation spectroscopy (FCS); YFP-dysferlin diffusing in detergent solution, SDS
[2] = target: CFP-dysferlin / YFP-dysferlin (full-length human dysferlin) expressed in HEK293 cells (human) (UniProt O75923); assay: photon counting histogram (PCH); detergent solubilized YFP-dysferlin in SDS; molecular brightness against YFP

Question: With “CFP-dysferlin / YFP-dysferlin (full-length human dysferlin) expressed in HEK293 cells (from UniProt O75923 1-2080)” as the substance, how does the binding [1] read?
Answer: no binding (condition: in SDS)

Question: And the binding [2]?
Answer: no binding (condition: in SDS)
